Our source for the binding values is publication PMC4207637.

The chains behind the UniProt entries cited, without tags or fusion partners. Where a name states a change or a piece, a line headed by the entry shows the natural chain unless it says otherwise.
UniProt Q3UV17: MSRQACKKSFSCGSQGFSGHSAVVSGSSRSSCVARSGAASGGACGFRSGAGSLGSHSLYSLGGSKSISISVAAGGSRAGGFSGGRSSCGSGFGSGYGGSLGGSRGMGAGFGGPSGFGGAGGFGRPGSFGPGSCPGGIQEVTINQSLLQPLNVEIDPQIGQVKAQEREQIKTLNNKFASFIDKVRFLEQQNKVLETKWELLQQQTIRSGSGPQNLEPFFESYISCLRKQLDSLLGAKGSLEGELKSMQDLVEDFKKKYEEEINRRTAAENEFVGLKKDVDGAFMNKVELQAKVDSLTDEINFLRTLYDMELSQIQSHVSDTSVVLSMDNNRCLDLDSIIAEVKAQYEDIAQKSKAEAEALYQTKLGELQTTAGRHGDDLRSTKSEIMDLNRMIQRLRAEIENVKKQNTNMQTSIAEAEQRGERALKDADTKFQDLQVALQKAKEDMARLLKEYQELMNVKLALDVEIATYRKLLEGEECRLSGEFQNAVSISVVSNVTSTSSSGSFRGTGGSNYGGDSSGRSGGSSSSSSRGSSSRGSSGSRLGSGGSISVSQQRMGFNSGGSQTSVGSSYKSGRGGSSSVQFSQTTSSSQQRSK

Results are given in words; binding and its absence hold for the method and conditions named. Binding seen in cells or lysates may run through a third protein. Binding calls can cover weak binding; strength is not graded here.

This assay deals with HIS-tagged KRT76 tail domain (UniProt Q3UV17). Nature of the assay: pull-down; HIS or HIS-KRT76 tail domain bound to His-Mag nickel beads, incubated with adult mouse paw pad skin lysate (RIPA) overnight at 4°C; washed four times in Tris-saline pH 7.4 with 1% Triton X-100; immunoblot for CLDN1 and the HIS tag; only the target purified. On the technique in general: A western blot detects proteins with antibodies after separation by electrophoresis.

B1: Claudin1 (CLDN1), endogenous in mouse paw pad skin (protein, UniProt O88551 1-211)
chain: MANAGLQLLGFILASLGWIGSIVSTALPQWKIYSYAGDNIVTAQAIYEGLWMSCVSQSTGQIQCKVFDSLLNLNSTLQATRALMVIGILLGLIAIFVSTIGMKCMRCLEDDEVQKMWMAVIGGIIFLISGLATLVATAWYGNRIVQEFYDPLTPINARYEFGQALFTGWAAASLCLLGGVLLSCSCPRKTTSYPTPRPYPKPTPSSGKDYV
Turning to B1, the binding entry is given as “binds”.
